Common to all, as to assay: two-hybrid; matrix-based, all pair-wise combinations; Gal4 DB-X (pVV212) in MATalpha Y8930 mated with AD-Y (pVV213) in MATa Y8800; diploids scored by growth on SC-Leu-Trp-His plates at 30°C; vector alone as negative control
Assay [1] addresses T1, MUS-81 (C. elegans) (UniProt P91153).
T1 sequence: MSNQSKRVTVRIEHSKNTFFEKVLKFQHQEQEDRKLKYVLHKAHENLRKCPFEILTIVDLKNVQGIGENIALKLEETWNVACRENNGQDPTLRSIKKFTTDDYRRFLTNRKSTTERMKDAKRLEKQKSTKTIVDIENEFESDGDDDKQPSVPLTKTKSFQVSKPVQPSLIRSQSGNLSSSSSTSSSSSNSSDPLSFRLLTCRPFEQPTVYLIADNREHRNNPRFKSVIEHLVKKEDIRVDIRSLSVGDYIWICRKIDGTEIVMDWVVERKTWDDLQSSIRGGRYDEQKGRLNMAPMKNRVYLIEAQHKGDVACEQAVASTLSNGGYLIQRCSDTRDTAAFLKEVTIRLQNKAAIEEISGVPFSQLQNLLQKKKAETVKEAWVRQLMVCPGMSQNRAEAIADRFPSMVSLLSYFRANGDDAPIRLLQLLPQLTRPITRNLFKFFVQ

Amino acid sequences for entries named in this document (tags omitted). A change or cut given only in a name is not applied to a line headed by its entry.
UniProt Q22145: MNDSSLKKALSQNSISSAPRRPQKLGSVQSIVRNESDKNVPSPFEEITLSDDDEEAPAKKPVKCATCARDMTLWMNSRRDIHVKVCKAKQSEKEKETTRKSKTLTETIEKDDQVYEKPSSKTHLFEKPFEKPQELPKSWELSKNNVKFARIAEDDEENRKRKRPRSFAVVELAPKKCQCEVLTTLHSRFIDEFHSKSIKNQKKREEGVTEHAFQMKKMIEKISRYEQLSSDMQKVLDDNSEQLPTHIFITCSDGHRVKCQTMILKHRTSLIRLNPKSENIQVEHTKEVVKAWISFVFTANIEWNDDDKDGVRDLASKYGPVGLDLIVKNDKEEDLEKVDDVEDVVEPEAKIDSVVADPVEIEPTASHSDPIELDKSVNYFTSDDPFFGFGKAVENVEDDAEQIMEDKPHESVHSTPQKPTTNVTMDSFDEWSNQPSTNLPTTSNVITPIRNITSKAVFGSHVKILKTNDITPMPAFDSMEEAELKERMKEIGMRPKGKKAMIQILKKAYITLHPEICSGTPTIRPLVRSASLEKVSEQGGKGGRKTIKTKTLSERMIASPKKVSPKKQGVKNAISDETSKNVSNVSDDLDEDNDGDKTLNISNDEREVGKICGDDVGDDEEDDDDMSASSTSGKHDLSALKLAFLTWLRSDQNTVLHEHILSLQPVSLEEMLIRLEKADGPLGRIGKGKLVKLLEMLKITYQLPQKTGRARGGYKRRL

The target of assay [2] is XPF-1 (C. elegans) (UniProt G5EBZ1).
The target of assay [3] is HIM-18 (C. elegans) (UniProt Q22145).
Assay [4] concerns the target ERCC-1 (C. elegans) (UniProt Q93456).
The target in assay [5] is EME-1 (C. elegans).

Results are given in words; binding and its absence hold for the method and conditions named. For some assays here: A result given as binding can be weak or reduced; the word gives no strength.

For the molecule EME-1 (C. elegans), the binding result in assay [1] is “binds”.

Take ERCC-1 (from UniProt Q93456): the binding entry in assay [2] is reported as “binds”.

Consider RAD-54 (C. elegans), for which the binding result in assay [1] is on record as “no binding”.

Consider XPF-1 (from UniProt G5EBZ1), for which, in assay [3], the binding entry was “binds”.

B1: GEN-1 (protein, UniProt Q22418 1-434)
chain: MTINGIWEWANHVVRKVPNETMRDKTLSIDGHIWLYESLKGCEAHHQQTPNSYLVTFFTRIQRLLELKIIPIVVFDNINASSSAHESKDQNEFVPRKRRSFGDSPFTNLVDHVYKTNALLTELGIKVIIAPGDGEAQCARLEDLGVTSGCITTDFDYFLFGGKNLYRFDFTAGTSSTACLHDIMHLSLGRMFMEKKVSRPHLISTAILLGCDYFQRGVQNIGIVSVFDILGEFGDDGNEEIDPHVILDRFASYVREEIPARSEDTQRKLRLRRKKYNFPVGFPNCDAVHNAITMYLRPPVSSEIPKIIPRAANFQQVAEIMMKECGWPATRTQKELALSIRRKVHLTTTVAQTRIPDFFAATKSKNFTPIVEPCESLEDYISANNTWMRKRKRSESPQILQHHAKRQVPDRKRSVKIRAFKPYPTDVIELGDSD
On to B1, for which the binding entry in assay [3], in assay [4], in assay [5] and in assay [2] was “no binding” throughout.

(Values after publication PMC3715419.)
